From patent US20090054325A1
Numbering of substitutions follows the chain as printed. In names and notes the source's numbering stands. Results are given in words; binding and its absence hold for the method and conditions named. Binding seen in cells or lysates may run through a third protein. A result given as binding can be weak or reduced; the word gives no strength.

B1: full length wild-type human NgR protein (receptor)
chain: CPGACVCYNEPKVTTSCPQQGLQAVPVGIPAASQRIFLHGNRISHVPAASFRACRNLTILWLHSNVLARIDAAAFTGLALLEQLDLSDNAQLRSVDPATFHGLGRLHTLHLDRCGLQELGPGLFRGLAALQYLYLQDNALQALPDDTFRDLGNLTHLFLHGNRISSVPERAFRGLHSLDRLLLHQNRVAHVHPHAFRDLGRLMTLYLFANNLSALPTEALAPLRALQYLRLNDNPWVCDCRARPLWAWLQKFRGSSSEVPCSLPQRLAGRDLKRLAANDLQGCAVATGPYHPIWTGRATDEEPLGLPKCCQPDAADKASVLEPGRPASAGNALKGRVPPGDSPPGNGSGPRHINDSPFGTLPGSAEPPLTAVRPEGSEPPGFPTSGPRRRPGCSRKNRTRSHCRLGQAGSGGGGTGDSEGS
B2: NgR-R377W mutant protein (receptor)
chain: B1 chain with R351W
B3: NgR-R377Q mutant protein (receptor)
chain: B1 chain with R351Q

Each binder was assayed against Lingo-1 (Homo sapiens (Human)) (assay: co-immunoprecipitation).

binding | Binder
binds | B1
binds | B2
binds | B3

What follows are binders tested against p75NTR (assay: co-immunoprecipitation).

binding | Binder
binds | B1
binds | B2
binds | B3
